Measured values as given in PubChem BioAssay AID445 (National Center for Advancing Translational Sciences (NCATS), 2006).
The other results are listed elsewhere or left out. Further columns of the screen follow, without active or inactive calls. Most of these compounds were active or inconclusive in the main read-out, so they are no random draw. Potencies come from curve fits of mixed quality, noted in brackets.

Assay: IkB Signaling
Settings: ABC-DLBCL IkBa-CBG/CBR dual luciferase ratio (green luciferase fused to IkBa over red control in OCI-Ly3 lymphoma cells), 4 h
In short: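 Luminescence ratio of IκBα-fused green versus native red beetle luciferase in OCI-Ly3 cells, 4 h post-doxycycline with compound; red signal alone, scaled from basal (0%) to zero light (-100%), flagged nonspecific or cytotoxic effects.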

[1] = measured here: control luc red channel unless noted
[2] = measured here: IkB-luc green channel
[3] = measured here: control luc red channel

For `Cc1cc(NC(=O)Cn2c(=O)nc(-c3ccccc3F)c3cc(Cl)ccc32)ccc1Br`, the AC50 [1] was 12.6 µM [falling, partial curve, poor fit].
With `O=C(CSc1nnc(-c2ccc(Br)cc2)n1C1CCCCC1)N1CCCC1` the AC50 [1] was 0.0631 µM [falling, full curve].
With `CCc1cccc(C)c1NC(=O)CCn1c(=O)c2cccn2c2ccccc21` the AC50 [1] was 25.1 µM [falling, partial curve].
With `Cc1ccc(-c2nnn(CC(=O)N(CC(=O)NCC3CCCO3)c3ccccc3)n2)o1` (configuration not stated) the AC50 [1] was 12.6 µM [falling, partial curve].
In the case of `Cc1ccnc(Nc2nc(-c3c(C)nc4sccn34)cs2)c1`, the AC50 [2] is reported as 7.94 µM [falling, full curve] and the AC50 [3] is reported as 7.94 µM [falling, full curve].
For `CCOc1ccc(C(=O)Nc2c(C(=O)N3CCN(c4ccccc4F)CC3)oc3ccccc23)cc1`, the AC50 [1] was 25.1 µM [falling, single point].
With `COc1ccc(-c2cc(C(=O)NC(C(=O)O)C(C)C)c(C)o2)cc1OC` (configuration not stated) the AC50 [2] was 0.794 µM [falling, full curve] and the AC50 [3] was 12.6 µM [falling, partial curve].
In the case of `CCc1nonc1NC(=O)c1oc2ccc(C)cc2c1C`, the AC50 [1] is reported as 0.02 µM [rising, full curve, poor fit].
With `CCCn1c(SCC(=O)NCc2ccco2)nnc1C(C)C` the AC50 [1] was 25.1 µM [rising, partial curve, poor fit] [measured here: IkB-luc green channel].
For `CCOc1ccc(N2C(=O)c3n[nH]c(-c4cccs4)c3C2c2cccc(F)c2)cc1` (configuration not stated), the AC50 [1] was 31.6 µM [falling, single point].
In the case of `CCOc1ccccc1CNC(=O)c1ccc2c(c1)nc1n2CCCCC1`, the AC50 [1] is reported as 0.0251 µM [falling, full curve, poor fit].
In the case of `Cc1c(Nc2nc3ccccc3n3c(C)nnc23)cccc1C(=O)O`, the AC50 [1] is reported as 2 µM [falling, full curve].
In the case of `COc1ccc(Br)cc1CNC(=O)CCSCc1ccc(C)cc1`, the AC50 [1] is reported as 20 µM [falling, partial curve].
With `O=C(CS(=O)(=O)c1cccc2nsnc12)N1CCN(c2cccc(C(F)(F)F)c2)CC1` the AC50 [1] was 39.8 µM [falling, single point].
For `O=C(Cn1cc(S(=O)(=O)c2ccccc2)c(=O)c2cc3c(cc21)OCO3)Nc1ccc(Cl)cc1`, the AC50 [1] was 12.6 µM [falling, partial curve].
With `CCNc1cc(N2CCN(C3CCCCC3)CC2)c2noc3c2c1C(=O)c1ccccc1-3` the AC50 [1] was 39.8 µM [falling, single point].
With `O=C(CSc1nnc(-c2c[nH]c3ccccc23)o1)N1c2ccccc2CCc2ccccc21` the AC50 [1] was 3.98 µM [falling, full curve].
In the case of `COC(=O)c1[nH]c2ccc(Br)cc2c1NC(=O)CN1CCN(C2CCCCC2)CC1`, the AC50 [1] is reported as 39.8 µM [falling, single point].
For `CCOC(=O)CSc1nc2ccccc2c(=O)n1-c1cccc(C)c1`, the AC50 [1] was 3.16 µM [rising, partial curve].
In the case of `CC(=O)C1=C(C)NC(=O)NC1c1ccccc1` (configuration not stated), the AC50 [1] is reported as 15.8 µM [falling, partial curve].
In the case of `O=C(O)Cc1sc(Nc2ccccc2)nc1-c1ccccc1`, the AC50 [1] is reported as 39.8 µM [falling, single point].
In the case of `CN(CCOc1ccc(C[C@H](Nc2ccccc2C(=O)c2ccccc2)C(=O)O)cc1)c1ccccn1`, the AC50 [1] is reported as 39.8 µM [falling, partial curve].
With `CCN(CC)c1ccc2c(c1)oc(=O)c1c(Cl)cc(=O)oc12` the AC50 [1] was 3.16 µM [falling, full curve].
For `COc1ccc(S(=O)(=O)NCCS(=O)(=O)N2CCN(c3ccccc3)CC2)cc1C`, the AC50 [1] was 31.6 µM [falling, single point].
With `COc1ccc(N2CCN(Cc3cccn3-c3nnc(N4CCN(C5CCCCC5)CC4)s3)CC2)cc1` the AC50 [1] was 12.6 µM [falling, partial curve].
For `Cc1nc(SC(C)C(=O)Nc2ccccc2Cl)cc(-c2ccccc2)n1` (configuration not stated), the AC50 [1] was 10 µM [falling, partial curve].
In the case of `CCOc1ccc(-n2nc(CO)c(C(=O)NCc3cccs3)n2)cc1`, the AC50 [1] is reported as 39.8 µM [falling, single point].
With `CC(Oc1ccc(Br)cc1)C(=O)Nc1ncn[nH]1` (configuration not stated) the AC50 [1] was 25.1 µM [falling, partial curve, poor fit].
In the case of `CCCCNc1nc2c(c(=O)n(C)c(=O)n2C)n1CC(O)COc1ccccc1C` (configuration not stated), the AC50 [1] is reported as 25.1 µM [falling, single point].
In the case of `CCOC(=O)c1c(NC(=O)c2ccc(Br)cc2)sc2c1CCCC2`, the AC50 [1] is reported as 12.6 µM [falling, single point].
For `COc1cccc(N2CCN(Cc3nc(N)nc(N4CCCc5ccccc54)n3)CC2)c1`, the AC50 [1] was 10 µM [falling, partial curve].
With `C=C1C(=O)O[C@@H]2[C@H]3O[C@]3(C)CCC=C(C)CC[C@@H]12` the AC50 [1] was 6.31 µM [falling, full curve].
In the case of `COc1ccc(C(=O)Nc2nnc(S(=O)(=O)N3CCCc4ccccc43)s2)cc1`, the AC50 [1] is reported as 12.6 µM [falling, partial curve].
In the case of `Cc1ccc2nc(-c3cccc(NC(=O)c4ccc(Br)o4)c3)oc2c1`, the AC50 [1] is reported as 15.8 µM [falling, partial curve].
With `Cc1ccc(NC(=O)CSc2ccc3nnc(CCNS(=O)(=O)c4ccccc4)n3n2)cc1Cl` the AC50 [1] was 25.1 µM [falling, single point].
For `Cc1ccccc1NC(=O)c1cccc2c(=O)c3c([nH]c12)CCCC3`, the AC50 [1] was 0.0251 µM [rising, full curve, poor fit].
With `Cc1ccccc1NC(=O)CSc1nnc(COc2ccc(Cl)cc2)o1` the AC50 [1] was 5.01 µM [falling, partial curve].
For `CN(C)CCNC(=O)c1ccc2c(c1)N(Cc1ccccc1)C(=O)c1ccccc1S2(=O)=O`, the AC50 [1] was 25.1 µM [falling, single point].
For `CCCSc1ncc(Cl)c(C(=O)NCc2ccc(OC)cc2)n1`, the AC50 [1] was 25.1 µM [falling, single point].
For `Cc1noc(C)c1CSc1cc(C)c2ccccc2n1`, the AC50 [1] was 2.51 µM [rising, full curve].
